No constants are given. Whether binding was seen depends on the method and setting. Some binding calls cover weakened binding; strength is not graded here.
B1: peptide 5 (peptide)
peptide: AEKQKKKTVIYTKCF
B2: peptide 46 (peptide)
peptide: VKKYCLMSVKGCFTD
B3: peptide 47 (peptide)
peptide: LMSVKGCFTDFHIDF
B4: peptide 122 (peptide)
peptide: ARRRRTRCRKCEACL
B5: peptide 123 (peptide)
peptide: TRCRKCEACLRTECG
B6: peptide 131 (peptide)
peptide: CIAPVLPHTAVCLVC
B7: peptide 132 (peptide)
peptide: LPHTAVCLVCGEAGK
B8: peptide 139 (peptide)
peptide: CNEIIHPGCLKIKES
B9: peptide 142 (peptide)
peptide: EGVVNDELPNCWECP
B10: peptide 151 (peptide)
peptide: QKMNRDNKEGQEPAK
B11: peptide 152 (peptide)
peptide: DNKEGQEPAKRRSEC
B12: peptide 153 (peptide)
peptide: QEPAKRRSECEEAPR
B13: peptide 231 (peptide)
peptide: LRDLVLSGCSWIAVS
B14: peptide 232 (peptide)
peptide: LSGCSWIAVSALCSS
B15: peptide 233 (peptide)
peptide: WIAVSALCSSSCPLL

The chains behind the UniProt entries cited, without tags or fusion partners.
UniProt Q15910: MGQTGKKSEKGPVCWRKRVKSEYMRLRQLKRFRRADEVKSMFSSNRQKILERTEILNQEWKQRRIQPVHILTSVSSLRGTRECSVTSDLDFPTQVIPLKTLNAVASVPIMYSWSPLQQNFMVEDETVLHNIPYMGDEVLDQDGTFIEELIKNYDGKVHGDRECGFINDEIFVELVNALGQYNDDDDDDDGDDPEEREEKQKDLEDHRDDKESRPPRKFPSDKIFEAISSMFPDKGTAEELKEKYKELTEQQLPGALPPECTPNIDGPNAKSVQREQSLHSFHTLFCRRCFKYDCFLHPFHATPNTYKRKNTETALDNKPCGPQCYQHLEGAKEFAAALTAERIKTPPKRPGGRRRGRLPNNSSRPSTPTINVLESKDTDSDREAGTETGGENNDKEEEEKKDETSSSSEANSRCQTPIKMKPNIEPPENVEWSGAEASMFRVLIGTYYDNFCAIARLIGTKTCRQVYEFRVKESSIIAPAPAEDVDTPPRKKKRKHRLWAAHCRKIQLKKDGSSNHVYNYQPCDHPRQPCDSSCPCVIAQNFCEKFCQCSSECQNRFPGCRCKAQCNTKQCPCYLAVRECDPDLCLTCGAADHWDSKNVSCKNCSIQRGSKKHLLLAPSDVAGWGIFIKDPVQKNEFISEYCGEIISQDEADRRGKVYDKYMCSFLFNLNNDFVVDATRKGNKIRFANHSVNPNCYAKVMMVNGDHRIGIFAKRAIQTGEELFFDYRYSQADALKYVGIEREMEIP

Each binder was assayed against biotin-labelled EZH2 protein (UniProt Q15910) (assay: KDM2B peptide array probed with biotin-EZH2; positive colored point).
With B1 the binding was “binds”. In the case of B2, the binding is reported as “binds”. With B3 the binding was “binds”. For B4, the binding was “binds”. With B5 the binding was “binds”. With B6 the binding was “binds”. B7 was tested, and the binding was “binds”. With B8 the binding was “binds”. In the case of B9, the binding is reported as “binds”. B10 was tested, and the binding was “binds”. With B11 the binding was “binds”. For B12, the binding was “binds”. In the case of B13, the binding is reported as “binds”. B14 was tested, and the binding was “binds”. B15 was tested, and the binding was “binds”.
